Assay results reported in PMC6090058.
Results are given in words; binding and its absence hold for the method and conditions named. Some results given as binding are weak or reduced against the parent protein; the word gives no strength.

Sequences of proteins named here, by UniProt entry; tags and fusion partners are left off. A change or cut given only in a name is not applied to a line headed by its entry. Residues count along the entry.
UniProt P08603, residues 19-1231: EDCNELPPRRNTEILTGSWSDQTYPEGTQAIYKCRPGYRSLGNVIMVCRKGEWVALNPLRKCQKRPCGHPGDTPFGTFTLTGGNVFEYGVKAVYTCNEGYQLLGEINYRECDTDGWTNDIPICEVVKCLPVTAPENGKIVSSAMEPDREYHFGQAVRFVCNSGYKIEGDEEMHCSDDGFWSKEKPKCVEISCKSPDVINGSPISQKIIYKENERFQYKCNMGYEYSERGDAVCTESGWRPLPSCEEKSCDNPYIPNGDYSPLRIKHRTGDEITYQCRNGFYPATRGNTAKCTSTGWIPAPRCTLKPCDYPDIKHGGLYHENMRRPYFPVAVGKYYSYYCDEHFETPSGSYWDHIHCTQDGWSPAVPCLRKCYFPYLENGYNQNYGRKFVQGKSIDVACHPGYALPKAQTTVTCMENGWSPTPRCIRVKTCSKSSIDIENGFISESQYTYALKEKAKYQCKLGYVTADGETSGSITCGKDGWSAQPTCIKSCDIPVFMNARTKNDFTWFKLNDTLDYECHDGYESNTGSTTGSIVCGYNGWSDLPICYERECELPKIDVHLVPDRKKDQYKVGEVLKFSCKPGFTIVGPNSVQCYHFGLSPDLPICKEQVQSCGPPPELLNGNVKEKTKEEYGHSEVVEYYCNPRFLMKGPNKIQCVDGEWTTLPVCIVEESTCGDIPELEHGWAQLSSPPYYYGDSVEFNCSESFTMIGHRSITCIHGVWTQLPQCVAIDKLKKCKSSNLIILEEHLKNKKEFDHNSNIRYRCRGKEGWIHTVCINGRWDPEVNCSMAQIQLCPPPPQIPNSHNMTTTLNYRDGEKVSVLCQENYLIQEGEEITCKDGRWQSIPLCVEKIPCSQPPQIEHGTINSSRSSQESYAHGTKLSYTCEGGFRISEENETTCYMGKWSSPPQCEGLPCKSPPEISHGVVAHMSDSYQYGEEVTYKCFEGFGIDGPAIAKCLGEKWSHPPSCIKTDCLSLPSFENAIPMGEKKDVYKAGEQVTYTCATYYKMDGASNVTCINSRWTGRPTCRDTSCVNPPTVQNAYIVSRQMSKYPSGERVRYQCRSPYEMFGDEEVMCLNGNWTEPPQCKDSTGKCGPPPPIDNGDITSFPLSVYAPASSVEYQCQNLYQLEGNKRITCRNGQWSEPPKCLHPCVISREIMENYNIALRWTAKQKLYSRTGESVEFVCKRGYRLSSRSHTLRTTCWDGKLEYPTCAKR
UniProt P08174, residues 35-353: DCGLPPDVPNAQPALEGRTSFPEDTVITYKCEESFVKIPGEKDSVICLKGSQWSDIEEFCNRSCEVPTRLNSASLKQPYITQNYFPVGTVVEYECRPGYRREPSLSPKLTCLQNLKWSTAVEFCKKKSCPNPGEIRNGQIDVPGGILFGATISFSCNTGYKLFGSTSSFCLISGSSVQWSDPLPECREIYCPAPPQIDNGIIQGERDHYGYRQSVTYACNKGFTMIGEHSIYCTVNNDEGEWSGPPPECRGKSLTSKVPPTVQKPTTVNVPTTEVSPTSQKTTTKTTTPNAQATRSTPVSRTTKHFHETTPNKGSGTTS
UniProt P05156, residues 19-583: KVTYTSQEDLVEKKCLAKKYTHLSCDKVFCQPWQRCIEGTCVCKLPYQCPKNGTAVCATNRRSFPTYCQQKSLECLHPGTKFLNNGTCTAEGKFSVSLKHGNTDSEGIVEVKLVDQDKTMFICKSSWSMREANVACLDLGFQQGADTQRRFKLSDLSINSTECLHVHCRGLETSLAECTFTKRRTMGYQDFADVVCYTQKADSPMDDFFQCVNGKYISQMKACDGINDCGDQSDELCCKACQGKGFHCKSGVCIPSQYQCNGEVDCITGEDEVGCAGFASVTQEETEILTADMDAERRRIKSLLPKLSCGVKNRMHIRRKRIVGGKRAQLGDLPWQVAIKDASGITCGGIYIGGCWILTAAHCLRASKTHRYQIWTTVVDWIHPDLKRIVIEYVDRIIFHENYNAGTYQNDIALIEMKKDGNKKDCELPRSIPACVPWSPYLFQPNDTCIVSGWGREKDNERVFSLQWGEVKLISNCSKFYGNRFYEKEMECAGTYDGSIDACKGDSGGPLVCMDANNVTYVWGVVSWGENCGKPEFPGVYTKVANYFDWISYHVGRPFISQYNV
UniProt P01024: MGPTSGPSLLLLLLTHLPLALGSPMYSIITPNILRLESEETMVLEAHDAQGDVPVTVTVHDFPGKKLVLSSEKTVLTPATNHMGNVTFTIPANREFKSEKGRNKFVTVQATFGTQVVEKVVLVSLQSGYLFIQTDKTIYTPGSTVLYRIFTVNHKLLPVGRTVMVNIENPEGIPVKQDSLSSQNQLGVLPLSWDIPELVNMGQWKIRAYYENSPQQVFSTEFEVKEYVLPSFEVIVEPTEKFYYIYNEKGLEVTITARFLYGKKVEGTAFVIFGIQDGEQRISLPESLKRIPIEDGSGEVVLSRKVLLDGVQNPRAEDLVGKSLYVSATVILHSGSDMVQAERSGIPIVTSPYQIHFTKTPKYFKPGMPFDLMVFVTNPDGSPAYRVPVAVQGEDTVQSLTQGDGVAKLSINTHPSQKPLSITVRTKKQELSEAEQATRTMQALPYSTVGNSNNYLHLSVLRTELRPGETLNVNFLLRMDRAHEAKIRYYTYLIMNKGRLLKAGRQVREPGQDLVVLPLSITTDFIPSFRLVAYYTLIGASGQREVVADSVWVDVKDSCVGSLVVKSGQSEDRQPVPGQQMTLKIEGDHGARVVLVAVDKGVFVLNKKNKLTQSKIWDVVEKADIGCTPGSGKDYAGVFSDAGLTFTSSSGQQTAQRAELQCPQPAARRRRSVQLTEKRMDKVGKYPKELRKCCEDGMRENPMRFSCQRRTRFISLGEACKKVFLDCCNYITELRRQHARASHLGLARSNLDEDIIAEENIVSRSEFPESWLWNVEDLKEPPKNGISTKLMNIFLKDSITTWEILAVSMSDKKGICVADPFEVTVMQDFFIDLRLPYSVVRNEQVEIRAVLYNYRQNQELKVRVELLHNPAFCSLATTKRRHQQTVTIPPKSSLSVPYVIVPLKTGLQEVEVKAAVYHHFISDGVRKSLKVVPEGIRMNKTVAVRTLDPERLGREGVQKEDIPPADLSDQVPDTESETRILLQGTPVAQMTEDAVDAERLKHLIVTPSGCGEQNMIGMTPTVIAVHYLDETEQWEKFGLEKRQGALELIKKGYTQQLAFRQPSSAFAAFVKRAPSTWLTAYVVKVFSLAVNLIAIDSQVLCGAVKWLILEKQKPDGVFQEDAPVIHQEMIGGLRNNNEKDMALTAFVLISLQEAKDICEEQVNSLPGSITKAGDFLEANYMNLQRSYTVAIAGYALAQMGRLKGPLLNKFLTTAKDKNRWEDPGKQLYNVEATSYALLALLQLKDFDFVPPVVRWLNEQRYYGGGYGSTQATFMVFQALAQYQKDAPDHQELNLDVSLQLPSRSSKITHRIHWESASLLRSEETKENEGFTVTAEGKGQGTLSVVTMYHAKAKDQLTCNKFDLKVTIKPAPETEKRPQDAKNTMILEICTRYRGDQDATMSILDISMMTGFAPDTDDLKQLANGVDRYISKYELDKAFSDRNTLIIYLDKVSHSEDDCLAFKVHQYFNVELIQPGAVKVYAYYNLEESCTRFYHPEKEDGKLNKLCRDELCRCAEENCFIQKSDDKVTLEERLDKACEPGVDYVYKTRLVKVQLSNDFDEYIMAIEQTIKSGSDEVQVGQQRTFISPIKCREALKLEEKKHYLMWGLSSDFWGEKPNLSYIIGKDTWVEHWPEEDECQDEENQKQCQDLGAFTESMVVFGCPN

Key:
Assay in all cases: ELISA; ligand coated on microtiter plates at 5 µg/ml (factor B 10 µg/ml) in PBS; methylamine-treated C3 cell media at four concentrations in low salt buffer (10 mM Tris, pH 7.2, 25 mM NaCl, 0.05% Tween 20, 4% BSA), 2 h at 37°C; bound C3met detected with rabbit anti-human C3c antibody; only the target purified
factor H = factor H (UniProt P08603)
CD55 = CD55 (UniProt P08174)
factor I = factor I (UniProt P05156)

binding (factor H)	binding (CD55)	binding (factor I)	Substance
binds			C3met R102G (from UniProt P01024 23-667; P01024 672-1663)
binds	binds	binds	C3met G1606D (from UniProt P01024 23-667; P01024 672-1663)
binds		binds	C3met R1591G (from UniProt P01024 23-667; P01024 672-1663)
binds			C3met R735W (from UniProt P01024 23-667; P01024 672-1663)
binds			C3met K155Q (from UniProt P01024 23-667; P01024 672-1663)
binds	binds	binds	C3met, methylamine-treated recombinant complement component C3, wild type (from UniProt P01024 23-667; P01024 672-1663)
